This is one part of the list.
compound: C1CCN(C1)C(=O)NC2=CC=CC(=C2)NC3=NC=C(C(=N3)NCCC4=CN=CN4)Br; test: log2 fold change, soluble protein after heating vs DMSO (PISA); higher = thermal stabilisation; K562 lysate, 10 uM; active = over 0.2 and 3.5 SD of the protein, either way, in both replicates (recomputed)
Method in brief: (§1)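 Thermal stability, expressed as log-two fold change relative to solvent controls, is given from duplicates. Crude K562 extract in PBS pH 7.4 with 1 mM MgCl2, at 1 mg/mL protein, was treated with 10 μM compound for 30 min and heated in aliquots for 3 min across 48°C-58°C. After pooling, adjustment to 0.5% NP-40 at 4°C and centrifugation at 21,000xg for 90 min, supernatant protein was measured by TMTpro 16plex LC-MS/MS with channel sums equalised.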

Protein sequences, listed by entry. Tags and fused reporters are not part of them. Lines headed by an entry give the natural chain unless they say otherwise; changes in a name come on top.
UniProt O95620: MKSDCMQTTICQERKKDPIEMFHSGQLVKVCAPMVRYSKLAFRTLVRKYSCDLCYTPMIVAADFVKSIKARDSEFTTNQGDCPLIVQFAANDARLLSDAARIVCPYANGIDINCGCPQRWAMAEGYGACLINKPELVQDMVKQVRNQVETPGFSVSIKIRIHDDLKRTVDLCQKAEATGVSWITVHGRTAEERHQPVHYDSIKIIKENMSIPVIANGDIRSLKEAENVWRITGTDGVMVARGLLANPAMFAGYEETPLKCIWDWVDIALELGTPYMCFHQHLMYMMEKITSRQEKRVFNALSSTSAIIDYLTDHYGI
UniProt Q7Z2Z2: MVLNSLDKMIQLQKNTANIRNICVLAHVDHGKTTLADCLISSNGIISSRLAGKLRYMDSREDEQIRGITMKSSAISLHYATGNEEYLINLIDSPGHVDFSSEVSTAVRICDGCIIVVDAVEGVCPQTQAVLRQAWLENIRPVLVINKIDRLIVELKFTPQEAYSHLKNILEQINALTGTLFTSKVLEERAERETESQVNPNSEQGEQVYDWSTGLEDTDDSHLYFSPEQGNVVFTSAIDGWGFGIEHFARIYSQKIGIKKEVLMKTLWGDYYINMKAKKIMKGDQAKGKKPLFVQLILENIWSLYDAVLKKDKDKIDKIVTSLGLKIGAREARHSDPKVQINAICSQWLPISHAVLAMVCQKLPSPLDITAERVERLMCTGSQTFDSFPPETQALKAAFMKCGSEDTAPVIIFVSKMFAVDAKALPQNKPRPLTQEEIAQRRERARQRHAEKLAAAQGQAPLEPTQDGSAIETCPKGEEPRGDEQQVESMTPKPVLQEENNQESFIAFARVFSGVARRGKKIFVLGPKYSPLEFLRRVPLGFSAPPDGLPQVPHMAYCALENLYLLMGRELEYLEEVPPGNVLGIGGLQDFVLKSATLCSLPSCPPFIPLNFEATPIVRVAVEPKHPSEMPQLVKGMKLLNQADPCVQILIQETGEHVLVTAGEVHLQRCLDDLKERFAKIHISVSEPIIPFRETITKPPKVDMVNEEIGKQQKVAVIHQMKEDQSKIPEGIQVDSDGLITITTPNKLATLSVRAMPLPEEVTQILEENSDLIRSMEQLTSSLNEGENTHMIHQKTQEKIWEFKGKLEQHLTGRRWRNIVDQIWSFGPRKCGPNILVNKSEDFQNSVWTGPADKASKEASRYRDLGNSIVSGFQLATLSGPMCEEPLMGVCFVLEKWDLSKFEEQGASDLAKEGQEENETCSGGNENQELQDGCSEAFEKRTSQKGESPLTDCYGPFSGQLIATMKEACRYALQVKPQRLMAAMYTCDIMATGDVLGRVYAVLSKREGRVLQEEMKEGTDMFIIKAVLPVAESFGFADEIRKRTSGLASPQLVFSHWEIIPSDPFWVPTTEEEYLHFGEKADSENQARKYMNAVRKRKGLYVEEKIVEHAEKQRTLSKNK
UniProt Q9H8V3: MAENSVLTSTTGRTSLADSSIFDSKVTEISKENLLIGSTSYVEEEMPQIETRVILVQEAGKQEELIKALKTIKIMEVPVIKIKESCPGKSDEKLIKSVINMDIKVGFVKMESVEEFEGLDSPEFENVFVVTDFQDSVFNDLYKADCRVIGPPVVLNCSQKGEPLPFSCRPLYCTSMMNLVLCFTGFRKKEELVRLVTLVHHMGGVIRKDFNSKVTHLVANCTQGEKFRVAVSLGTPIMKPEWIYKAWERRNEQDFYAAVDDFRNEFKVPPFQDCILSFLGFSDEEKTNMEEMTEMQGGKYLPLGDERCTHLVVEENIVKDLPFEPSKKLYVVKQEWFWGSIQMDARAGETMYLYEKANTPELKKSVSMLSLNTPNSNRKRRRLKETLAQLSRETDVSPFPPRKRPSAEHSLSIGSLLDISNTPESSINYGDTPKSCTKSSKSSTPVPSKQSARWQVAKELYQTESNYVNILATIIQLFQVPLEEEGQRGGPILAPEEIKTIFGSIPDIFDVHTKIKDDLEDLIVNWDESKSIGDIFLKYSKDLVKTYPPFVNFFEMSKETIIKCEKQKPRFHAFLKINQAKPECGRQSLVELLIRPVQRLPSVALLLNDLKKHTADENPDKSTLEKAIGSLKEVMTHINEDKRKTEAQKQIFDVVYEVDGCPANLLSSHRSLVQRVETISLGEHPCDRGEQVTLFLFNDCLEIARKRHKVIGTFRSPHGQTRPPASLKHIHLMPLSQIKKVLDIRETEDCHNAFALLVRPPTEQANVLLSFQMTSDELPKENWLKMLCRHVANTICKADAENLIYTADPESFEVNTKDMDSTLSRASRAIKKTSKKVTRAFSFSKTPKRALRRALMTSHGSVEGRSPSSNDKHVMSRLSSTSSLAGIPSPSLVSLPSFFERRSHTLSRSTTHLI
UniProt Q14126: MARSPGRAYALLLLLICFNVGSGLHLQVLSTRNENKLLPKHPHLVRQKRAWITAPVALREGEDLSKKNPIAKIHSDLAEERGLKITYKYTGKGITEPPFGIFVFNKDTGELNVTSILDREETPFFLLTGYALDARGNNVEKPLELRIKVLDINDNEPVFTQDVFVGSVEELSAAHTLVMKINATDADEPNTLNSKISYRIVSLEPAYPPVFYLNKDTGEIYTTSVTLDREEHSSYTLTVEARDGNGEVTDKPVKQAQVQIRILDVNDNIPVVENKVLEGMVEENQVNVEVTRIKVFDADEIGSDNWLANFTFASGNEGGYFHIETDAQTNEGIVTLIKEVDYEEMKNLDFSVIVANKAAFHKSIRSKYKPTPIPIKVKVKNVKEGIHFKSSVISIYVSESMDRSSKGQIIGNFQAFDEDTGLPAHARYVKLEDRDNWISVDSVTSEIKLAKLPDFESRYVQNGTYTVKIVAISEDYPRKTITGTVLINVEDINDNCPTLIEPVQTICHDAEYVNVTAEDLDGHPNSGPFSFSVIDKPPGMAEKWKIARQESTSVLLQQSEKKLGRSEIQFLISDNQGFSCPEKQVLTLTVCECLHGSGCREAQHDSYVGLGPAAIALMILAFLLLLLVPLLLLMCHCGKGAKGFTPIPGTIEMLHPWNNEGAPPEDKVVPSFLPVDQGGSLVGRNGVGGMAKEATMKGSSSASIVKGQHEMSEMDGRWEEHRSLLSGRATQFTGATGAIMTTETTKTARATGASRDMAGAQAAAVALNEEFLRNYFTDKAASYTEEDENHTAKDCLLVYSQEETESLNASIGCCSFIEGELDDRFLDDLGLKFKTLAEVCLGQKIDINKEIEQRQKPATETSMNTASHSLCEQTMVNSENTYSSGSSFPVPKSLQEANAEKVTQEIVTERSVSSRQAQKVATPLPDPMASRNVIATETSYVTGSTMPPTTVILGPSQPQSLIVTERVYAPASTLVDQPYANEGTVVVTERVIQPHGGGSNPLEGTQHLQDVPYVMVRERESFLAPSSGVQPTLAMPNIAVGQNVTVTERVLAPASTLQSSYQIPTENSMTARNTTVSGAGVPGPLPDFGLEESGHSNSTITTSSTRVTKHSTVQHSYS
UniProt Q15075: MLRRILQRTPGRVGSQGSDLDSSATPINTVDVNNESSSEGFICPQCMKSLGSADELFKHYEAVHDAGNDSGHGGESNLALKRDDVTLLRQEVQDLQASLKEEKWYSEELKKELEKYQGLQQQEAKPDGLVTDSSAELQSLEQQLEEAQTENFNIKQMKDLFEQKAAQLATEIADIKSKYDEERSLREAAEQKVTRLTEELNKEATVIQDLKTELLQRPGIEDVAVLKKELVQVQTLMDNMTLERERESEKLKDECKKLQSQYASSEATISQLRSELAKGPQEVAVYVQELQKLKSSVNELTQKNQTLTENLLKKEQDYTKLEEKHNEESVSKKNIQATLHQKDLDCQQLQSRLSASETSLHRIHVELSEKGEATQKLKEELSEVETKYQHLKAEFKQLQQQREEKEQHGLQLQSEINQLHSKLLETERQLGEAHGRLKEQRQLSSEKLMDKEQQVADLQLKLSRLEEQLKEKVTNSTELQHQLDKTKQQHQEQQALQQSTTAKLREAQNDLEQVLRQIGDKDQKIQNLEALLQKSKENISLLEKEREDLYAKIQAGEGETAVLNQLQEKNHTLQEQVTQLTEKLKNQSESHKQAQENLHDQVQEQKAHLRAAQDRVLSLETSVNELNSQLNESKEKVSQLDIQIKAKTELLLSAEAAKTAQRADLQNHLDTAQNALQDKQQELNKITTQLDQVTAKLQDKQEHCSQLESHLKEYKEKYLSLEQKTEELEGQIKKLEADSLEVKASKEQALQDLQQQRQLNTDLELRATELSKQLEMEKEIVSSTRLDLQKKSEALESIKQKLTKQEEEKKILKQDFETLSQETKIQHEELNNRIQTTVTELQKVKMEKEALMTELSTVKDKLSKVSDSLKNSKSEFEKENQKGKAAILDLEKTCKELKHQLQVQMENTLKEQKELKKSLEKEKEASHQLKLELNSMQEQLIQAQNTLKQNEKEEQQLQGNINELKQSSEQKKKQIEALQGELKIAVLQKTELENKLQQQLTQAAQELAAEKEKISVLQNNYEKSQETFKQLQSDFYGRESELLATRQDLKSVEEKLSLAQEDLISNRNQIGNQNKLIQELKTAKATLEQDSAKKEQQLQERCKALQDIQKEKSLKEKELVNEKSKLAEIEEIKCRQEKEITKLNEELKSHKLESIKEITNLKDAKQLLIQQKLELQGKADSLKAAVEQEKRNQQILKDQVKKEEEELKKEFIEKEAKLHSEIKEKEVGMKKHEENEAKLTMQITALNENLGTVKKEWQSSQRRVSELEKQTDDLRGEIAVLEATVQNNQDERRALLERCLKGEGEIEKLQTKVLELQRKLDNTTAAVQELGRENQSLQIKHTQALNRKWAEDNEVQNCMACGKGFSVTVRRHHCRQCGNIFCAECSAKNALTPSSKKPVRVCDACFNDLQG
UniProt P63167, whole entry, looked up: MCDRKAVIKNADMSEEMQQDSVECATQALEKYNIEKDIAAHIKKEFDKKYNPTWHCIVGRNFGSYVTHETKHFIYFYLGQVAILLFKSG
UniProt O75071: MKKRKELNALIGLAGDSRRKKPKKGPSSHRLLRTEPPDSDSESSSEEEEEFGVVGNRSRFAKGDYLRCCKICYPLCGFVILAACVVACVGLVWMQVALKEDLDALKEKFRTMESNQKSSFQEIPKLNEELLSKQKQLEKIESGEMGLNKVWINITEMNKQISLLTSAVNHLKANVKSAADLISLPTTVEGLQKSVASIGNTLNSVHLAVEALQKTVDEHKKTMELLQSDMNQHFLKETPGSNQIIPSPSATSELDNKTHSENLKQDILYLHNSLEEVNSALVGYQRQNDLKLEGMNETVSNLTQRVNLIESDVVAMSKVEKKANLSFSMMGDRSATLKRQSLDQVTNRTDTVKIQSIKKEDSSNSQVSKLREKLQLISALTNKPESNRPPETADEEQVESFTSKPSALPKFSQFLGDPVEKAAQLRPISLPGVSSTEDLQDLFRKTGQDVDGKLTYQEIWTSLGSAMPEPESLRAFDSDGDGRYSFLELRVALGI
UniProt P30084: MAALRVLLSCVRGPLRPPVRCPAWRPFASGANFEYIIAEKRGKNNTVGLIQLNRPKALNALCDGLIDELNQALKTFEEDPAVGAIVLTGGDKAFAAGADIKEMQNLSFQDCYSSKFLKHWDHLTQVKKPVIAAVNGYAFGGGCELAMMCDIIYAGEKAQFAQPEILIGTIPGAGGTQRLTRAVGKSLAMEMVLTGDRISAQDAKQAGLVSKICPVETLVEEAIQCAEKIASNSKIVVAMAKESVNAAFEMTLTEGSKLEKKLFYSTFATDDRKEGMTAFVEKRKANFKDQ
UniProt P57772: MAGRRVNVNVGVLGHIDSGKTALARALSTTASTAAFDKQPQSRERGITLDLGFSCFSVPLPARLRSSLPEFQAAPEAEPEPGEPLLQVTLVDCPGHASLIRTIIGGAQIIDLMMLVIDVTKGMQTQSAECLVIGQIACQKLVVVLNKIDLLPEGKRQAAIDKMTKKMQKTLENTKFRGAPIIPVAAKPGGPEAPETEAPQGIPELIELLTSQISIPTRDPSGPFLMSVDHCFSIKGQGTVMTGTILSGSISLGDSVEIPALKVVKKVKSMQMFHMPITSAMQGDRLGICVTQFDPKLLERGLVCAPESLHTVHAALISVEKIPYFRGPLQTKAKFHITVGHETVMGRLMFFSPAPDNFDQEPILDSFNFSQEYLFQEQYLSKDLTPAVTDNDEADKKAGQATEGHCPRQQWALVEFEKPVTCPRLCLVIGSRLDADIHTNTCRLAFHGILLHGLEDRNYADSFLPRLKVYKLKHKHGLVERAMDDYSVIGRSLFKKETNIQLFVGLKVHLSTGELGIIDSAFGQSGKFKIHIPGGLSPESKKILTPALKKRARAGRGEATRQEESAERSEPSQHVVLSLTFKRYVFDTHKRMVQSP
UniProt Q9BVJ7: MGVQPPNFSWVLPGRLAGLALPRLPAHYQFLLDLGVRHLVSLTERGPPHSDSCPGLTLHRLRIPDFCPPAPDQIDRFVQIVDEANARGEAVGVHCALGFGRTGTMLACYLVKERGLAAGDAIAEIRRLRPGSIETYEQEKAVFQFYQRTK

log2 fold change, inactive:
DVL3 (UniProt Q92997) 0.179
EEF1AKNMT (UniProt Q8N6R0) 0.011
DUS4L (UniProt O95620) -0.019
DPH6 (UniProt Q7L8W6) 0.044
EFL1 (UniProt Q7Z2Z2) 0.01
EARS2 (UniProt Q5JPH6) -0.018
ECT2 (UniProt Q9H8V3) -0.104
DSG2 (UniProt Q14126) -0.017
DRAP1 isoform 2 (UniProt Q14919) -0.012
DYNC1LI1 (UniProt Q9Y6G9) -0.011
EHD2 (UniProt Q9NZN4) -0.004
E2F3 (UniProt O00716) 0.005
DR1 (UniProt Q01658) 0.021
DYNC1H1 (UniProt Q14204) -0.006
DUS3L (UniProt Q96G46) -0.012
DPH2 (UniProt Q9BQC3) 0.035
DYNC1LI2 (UniProt O43237) -0.027
EEA1 (UniProt Q15075) 0
DSCC1 (UniProt Q9BVC3) -0.012
ECI1 (UniProt P42126) 0.015
E2F4 (UniProt Q16254) -0.025
DYNLL1 (UniProt P63167) 0.038
DYNC1I2 isoform 2 (UniProt Q13409) 0.005
DPY19L4 (UniProt Q7Z388) -0.063
EFCAB14 (UniProt O75071) 0.01
DYRK1A (UniProt Q13627) -0.008
DPF2 (UniProt Q92785) 0.027
DSTN (UniProt P60981) -0.021
ECHS1 (UniProt P30084) 0.002
EFTUD2 (UniProt Q15029) -0.003
EDF1 (UniProt O60869) 0.008
DTYMK (UniProt P23919) 0.01
EEFSEC (UniProt P57772) -0.025
DSC2 (UniProt Q02487) 0.071
DXO (UniProt O77932) 0.076
DUSP23 (UniProt Q9BVJ7) -0.036
EGLN1 (UniProt Q9GZT9) 0.015
EEF1B2 (UniProt P24534) 0.008
EAPP (UniProt Q56P03) 0.024
EDEM3 (UniProt Q9BZQ6) 0.005

compound: C1CN(CCC1(CC2=CC=C(C=C2)Cl)N)C3=NC=NC4=C3C=CN4; test: as above
Method in brief: as §1

log2 fold change, inactive:
DVL3 (UniProt Q92997) -0.024
EEF1AKNMT (UniProt Q8N6R0) 0.053
DUS4L (UniProt O95620) 0.02
DPH6 (UniProt Q7L8W6) 0.02
EFL1 (UniProt Q7Z2Z2) 0.007
EARS2 (UniProt Q5JPH6) -0.001
ECT2 (UniProt Q9H8V3) -0.1
DSG2 (UniProt Q14126) 0.009
DRAP1 isoform 2 (UniProt Q14919) 0.005
DYNC1LI1 (UniProt Q9Y6G9) -0.01
EHD2 (UniProt Q9NZN4) 0.012
E2F3 (UniProt O00716) 0.092
DR1 (UniProt Q01658) -0.032
DYNC1H1 (UniProt Q14204) 0.011
DUS3L (UniProt Q96G46) -0.007
DPH2 (UniProt Q9BQC3) 0.011
DYNC1LI2 (UniProt O43237) 0.002
EEA1 (UniProt Q15075) 0
DSCC1 (UniProt Q9BVC3) -0.016
ECI1 (UniProt P42126) 0.007
E2F4 (UniProt Q16254) 0.008
DYNLL1 (UniProt P63167) 0.076
DYNC1I2 isoform 2 (UniProt Q13409) -0.006
DPY19L4 (UniProt Q7Z388) -0.094
EFCAB14 (UniProt O75071) 0.042
DYRK1A (UniProt Q13627) -0.034
DPF2 (UniProt Q92785) 0.021
DSTN (UniProt P60981) -0.012
ECHS1 (UniProt P30084) 0.001
EFTUD2 (UniProt Q15029) -0.01
EDF1 (UniProt O60869) -0.006
DTYMK (UniProt P23919) -0.027
EEFSEC (UniProt P57772) -0.007
DSC2 (UniProt Q02487) -0.11
DXO (UniProt O77932) 0.019
DUSP23 (UniProt Q9BVJ7) 0.02
EGLN1 (UniProt Q9GZT9) -0.019
EEF1B2 (UniProt P24534) -0.006
EAPP (UniProt Q56P03) 0.103
EDEM3 (UniProt Q9BZQ6) 0.019
